No constants are given. Whether binding was seen depends on the method and setting. Binding seen in cells or lysates may run through a third protein. Some binding calls cover weakened binding; strength is not graded here. Sequences can lack the tags named with a protein.
Assays:
[1] = target: T1, MYC-tagged ARP (MYC-ARP) (Arabidopsis thaliana) (UniProt P45951); assay: co-IP; pairwise co-IP validation of ARP, CHR24 and NAP1 with negative controls (Supplementary Fig. S2)
T1 sequence: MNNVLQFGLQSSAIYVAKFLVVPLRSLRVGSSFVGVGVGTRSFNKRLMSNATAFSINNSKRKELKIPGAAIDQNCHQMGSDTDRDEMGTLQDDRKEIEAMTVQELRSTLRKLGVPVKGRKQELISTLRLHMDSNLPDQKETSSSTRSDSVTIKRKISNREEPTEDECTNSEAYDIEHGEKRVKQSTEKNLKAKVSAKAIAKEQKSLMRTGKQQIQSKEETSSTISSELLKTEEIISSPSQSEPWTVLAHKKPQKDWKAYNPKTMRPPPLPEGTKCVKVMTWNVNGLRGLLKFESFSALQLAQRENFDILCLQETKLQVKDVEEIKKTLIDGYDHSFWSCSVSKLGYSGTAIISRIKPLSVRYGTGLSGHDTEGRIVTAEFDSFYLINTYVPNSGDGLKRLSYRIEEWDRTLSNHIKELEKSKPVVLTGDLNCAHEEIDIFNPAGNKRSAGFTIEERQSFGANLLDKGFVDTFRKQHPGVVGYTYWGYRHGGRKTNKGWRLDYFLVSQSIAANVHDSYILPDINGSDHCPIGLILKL

[2] = target: T1, MYC-tagged ARP (MYC-ARP) (Arabidopsis thaliana); assay: co-IP; CHR24-FLAG and MYC-ARP transiently co-expressed in mesophyll protoplasts of YFP-NAP1;2 transgenic plants; IP with or without antibodies against GFP, FLAG and MYC, immunoblot
[3] = target: T2, MBP–ARP (Arabidopsis APE-redox protein tagged with maltose-binding protein) (Arabidopsis thaliana) (UniProt P45951); assay: pull-down; MBP–ARP and MBP (control) immobilised on Amylose Resin, mixed with extracts of mesophyll protoplasts expressing YFP-NAP1;2 and CHR24-FLAG, 4 h at 4 °C, washed three times, immunoblot; only the target purified
T2 sequence: T1 sequence

binding [1]: binds
binding [2]: binds
binding [3]: binds
B1: FLAG-tagged CHR24 (CHR24-FLAG) (enzyme, UniProt Q8W103 1-1090)
chain: MAENTASHRRKPRSLNDRHYSILQDLSAPPRQPPSSSHGEDEETKKSMIKLAGRRRLCKALPKEDEADGYDDPDLVDFYSPVKGETSLDSAGIGNKFTSWDESKEANTELAGEPNFSIITDFCSPSPQLKQKEEMQGDGGRNEIMGILDDLTSKLGTMSIQKKKDSQSNDFDACGVKSQVDKFDFEDAKSSFSLLSDLSKSSPDVVTTYNAGVNSIKDKQGKSGFAIREEQTSKEFSREWEERISNVGKQNSYSGRHFDDNSEDNRQGYNLDRGKSQCKEVDQSMKTTRHIEVSEKIRTVGRSNAAKLRDLDEDDDDDDCLILSGKKAAEMKINKPARSYNAKRHGYDERSLEDEGSITLTGLNLSYTLPGKIATMLYPHQREGLNWLWSLHTQGKGGILGDDMGLGKTMQICSFLAGLFHSKLIKRALVVAPKTLLPHWMKELATVGLSQMTREYYGTSTKAREYDLHHILQGKGILLTTYDIVRNNTKALQGDDHYTDEDDEDGNKWDYMILDEGHLIKNPNTQRAKSLLEIPSSHRIIISGTPIQNNLKELWALFNFSCPGLLGDKNWFKQNYEHYILRGTDKNATDREQRIGSTVAKNLREHIQPFFLRRLKSEVFGDDGATSKLSKKDEIVVWLRLTACQRQLYEAFLNSEIVLSAFDGSPLAALTILKKICDHPLLLTKRAAEDVLEGMDSTLTQEEAGVAERLAMHIADNVDTDDFQTKNDSISCKLSFIMSLLENLIPEGHRVLIFSQTRKMLNLIQDSLTSNGYSFLRIDGTTKAPDRLKTVEEFQEGHVAPIFLLTSQVGGLGLTLTKADRVIVVDPAWNPSTDNQSVDRAYRIGQTKDVIVYRLMTSATVEEKIYRKQVYKGGLFKTATEHKEQIRYFSQQDLRELFSLPKGGFDVSPTQQQLYEEHYNQIKLDEKLESHVKFLETLGIAGVSHHSLLFSKTAPIQAIQKDEEEQIRRETALLLGRASASISQDTVINGADYAFKPKDVNLDKRINISPVDDKELSESVIKARLNRLTMLLQNKGTVSRLPDGGAKIQKQIAELTRELKDMKAAERINMPQVIDLEEDISRKMQKGLNL

Reference: article PMC11132878
